Literature values, collected in US12440455B2, “Methods of administering cannabinoids” (IMPACT NATURALS, INC., priority 2022, dated 2025).

Conditions: clinical studies

C=C(C)[C@@H]1CCC(C)=C[C@H]1c1c(O)cc(CCCCC)cc1O [Cannabidiol]
oral bioavailability: 5-10%
